{"source": "paper PMC11171525", "about": "“Properties and Functional Analysis of Two Chorismate Mutases from Maritime Pine” (Cells, 2024)", "origin": "cited, not measured here", "tested_on": "CMs from basal angiosperms", "conditions": "substrate chorismate; ref [30]; cited from earlier work"}
{"smiles": "C=C(O[C@@H]1C=C(C(=O)O)C=C[C@H]1O)C(=O)O", "note": "[chorismate]", "values": [{"measurement": "Kcat", "result": "15 to 22.8", "unit": "s⁻¹"}]}
